Measurements reported in the supplement of paper PMC10849652.
This is one part of the list.

Protein sequences, listed by entry. Tags and fused reporters are not part of them. Lines headed by an entry give the natural chain unless they say otherwise; changes in a name come on top.
UniProt P20020: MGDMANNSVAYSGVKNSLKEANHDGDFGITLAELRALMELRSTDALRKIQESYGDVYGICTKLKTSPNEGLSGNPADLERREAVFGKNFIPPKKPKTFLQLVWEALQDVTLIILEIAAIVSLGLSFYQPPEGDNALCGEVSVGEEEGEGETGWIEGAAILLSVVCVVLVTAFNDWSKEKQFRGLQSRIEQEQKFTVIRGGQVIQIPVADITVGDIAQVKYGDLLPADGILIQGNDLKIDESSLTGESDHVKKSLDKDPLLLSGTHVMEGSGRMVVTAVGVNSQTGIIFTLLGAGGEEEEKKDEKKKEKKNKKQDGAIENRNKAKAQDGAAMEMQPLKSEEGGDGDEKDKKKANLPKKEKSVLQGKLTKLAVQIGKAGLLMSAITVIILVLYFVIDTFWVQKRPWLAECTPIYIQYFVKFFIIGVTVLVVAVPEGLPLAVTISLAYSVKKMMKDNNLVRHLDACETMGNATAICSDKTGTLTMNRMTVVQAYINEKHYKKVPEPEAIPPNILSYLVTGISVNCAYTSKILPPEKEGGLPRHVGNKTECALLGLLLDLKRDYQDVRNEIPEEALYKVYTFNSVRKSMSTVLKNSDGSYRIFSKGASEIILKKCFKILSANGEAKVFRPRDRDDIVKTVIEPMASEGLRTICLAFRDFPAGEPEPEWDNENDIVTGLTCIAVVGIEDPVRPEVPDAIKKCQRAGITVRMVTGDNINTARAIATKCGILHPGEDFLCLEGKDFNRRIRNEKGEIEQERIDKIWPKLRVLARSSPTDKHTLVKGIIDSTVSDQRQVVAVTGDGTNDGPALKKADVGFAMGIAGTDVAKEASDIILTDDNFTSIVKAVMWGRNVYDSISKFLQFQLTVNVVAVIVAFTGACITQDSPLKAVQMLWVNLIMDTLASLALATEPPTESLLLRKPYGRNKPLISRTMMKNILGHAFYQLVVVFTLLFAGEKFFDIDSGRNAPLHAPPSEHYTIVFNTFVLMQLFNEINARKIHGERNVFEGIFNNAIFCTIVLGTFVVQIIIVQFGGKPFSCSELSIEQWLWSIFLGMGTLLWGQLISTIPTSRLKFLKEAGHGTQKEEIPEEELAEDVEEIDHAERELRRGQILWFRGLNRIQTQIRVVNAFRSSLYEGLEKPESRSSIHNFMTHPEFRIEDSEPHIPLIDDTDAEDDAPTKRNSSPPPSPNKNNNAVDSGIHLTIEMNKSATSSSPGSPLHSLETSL
UniProt Q9H993: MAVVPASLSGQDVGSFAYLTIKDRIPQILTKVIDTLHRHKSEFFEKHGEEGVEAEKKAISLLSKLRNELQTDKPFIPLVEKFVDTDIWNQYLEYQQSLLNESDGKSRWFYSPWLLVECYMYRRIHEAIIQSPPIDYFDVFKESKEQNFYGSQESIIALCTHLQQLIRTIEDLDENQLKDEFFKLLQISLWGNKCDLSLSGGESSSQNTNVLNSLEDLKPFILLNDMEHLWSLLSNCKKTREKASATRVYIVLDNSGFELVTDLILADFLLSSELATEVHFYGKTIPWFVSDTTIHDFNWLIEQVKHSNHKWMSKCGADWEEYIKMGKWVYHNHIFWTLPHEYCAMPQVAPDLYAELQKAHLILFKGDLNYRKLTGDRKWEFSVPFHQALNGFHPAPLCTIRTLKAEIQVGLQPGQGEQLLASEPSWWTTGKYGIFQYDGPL
UniProt P98194: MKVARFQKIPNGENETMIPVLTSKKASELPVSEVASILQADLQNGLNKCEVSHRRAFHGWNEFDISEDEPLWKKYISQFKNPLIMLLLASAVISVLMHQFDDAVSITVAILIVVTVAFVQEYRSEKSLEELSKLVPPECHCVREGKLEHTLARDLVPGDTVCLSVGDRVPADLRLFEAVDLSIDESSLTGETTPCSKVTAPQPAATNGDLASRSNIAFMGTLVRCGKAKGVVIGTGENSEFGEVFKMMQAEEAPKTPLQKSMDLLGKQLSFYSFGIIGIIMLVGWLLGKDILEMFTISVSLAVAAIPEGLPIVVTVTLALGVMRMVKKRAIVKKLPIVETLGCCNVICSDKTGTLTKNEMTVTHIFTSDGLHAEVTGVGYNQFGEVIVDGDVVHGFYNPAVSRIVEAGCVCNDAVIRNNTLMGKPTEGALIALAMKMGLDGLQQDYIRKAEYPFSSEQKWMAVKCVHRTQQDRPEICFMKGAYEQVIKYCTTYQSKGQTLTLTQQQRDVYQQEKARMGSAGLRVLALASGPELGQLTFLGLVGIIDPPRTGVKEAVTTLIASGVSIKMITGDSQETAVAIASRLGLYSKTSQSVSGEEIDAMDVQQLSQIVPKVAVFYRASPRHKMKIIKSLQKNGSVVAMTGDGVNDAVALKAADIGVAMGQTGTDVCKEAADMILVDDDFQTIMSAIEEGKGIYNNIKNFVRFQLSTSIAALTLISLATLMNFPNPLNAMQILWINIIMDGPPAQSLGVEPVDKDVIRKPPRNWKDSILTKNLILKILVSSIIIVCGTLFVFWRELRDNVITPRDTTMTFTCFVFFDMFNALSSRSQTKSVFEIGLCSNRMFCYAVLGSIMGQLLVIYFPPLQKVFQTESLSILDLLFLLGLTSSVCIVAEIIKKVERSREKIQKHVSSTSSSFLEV
UniProt O75964: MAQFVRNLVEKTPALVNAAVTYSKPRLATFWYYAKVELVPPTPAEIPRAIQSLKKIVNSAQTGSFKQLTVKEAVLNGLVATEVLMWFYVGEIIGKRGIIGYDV
UniProt Q9HD20: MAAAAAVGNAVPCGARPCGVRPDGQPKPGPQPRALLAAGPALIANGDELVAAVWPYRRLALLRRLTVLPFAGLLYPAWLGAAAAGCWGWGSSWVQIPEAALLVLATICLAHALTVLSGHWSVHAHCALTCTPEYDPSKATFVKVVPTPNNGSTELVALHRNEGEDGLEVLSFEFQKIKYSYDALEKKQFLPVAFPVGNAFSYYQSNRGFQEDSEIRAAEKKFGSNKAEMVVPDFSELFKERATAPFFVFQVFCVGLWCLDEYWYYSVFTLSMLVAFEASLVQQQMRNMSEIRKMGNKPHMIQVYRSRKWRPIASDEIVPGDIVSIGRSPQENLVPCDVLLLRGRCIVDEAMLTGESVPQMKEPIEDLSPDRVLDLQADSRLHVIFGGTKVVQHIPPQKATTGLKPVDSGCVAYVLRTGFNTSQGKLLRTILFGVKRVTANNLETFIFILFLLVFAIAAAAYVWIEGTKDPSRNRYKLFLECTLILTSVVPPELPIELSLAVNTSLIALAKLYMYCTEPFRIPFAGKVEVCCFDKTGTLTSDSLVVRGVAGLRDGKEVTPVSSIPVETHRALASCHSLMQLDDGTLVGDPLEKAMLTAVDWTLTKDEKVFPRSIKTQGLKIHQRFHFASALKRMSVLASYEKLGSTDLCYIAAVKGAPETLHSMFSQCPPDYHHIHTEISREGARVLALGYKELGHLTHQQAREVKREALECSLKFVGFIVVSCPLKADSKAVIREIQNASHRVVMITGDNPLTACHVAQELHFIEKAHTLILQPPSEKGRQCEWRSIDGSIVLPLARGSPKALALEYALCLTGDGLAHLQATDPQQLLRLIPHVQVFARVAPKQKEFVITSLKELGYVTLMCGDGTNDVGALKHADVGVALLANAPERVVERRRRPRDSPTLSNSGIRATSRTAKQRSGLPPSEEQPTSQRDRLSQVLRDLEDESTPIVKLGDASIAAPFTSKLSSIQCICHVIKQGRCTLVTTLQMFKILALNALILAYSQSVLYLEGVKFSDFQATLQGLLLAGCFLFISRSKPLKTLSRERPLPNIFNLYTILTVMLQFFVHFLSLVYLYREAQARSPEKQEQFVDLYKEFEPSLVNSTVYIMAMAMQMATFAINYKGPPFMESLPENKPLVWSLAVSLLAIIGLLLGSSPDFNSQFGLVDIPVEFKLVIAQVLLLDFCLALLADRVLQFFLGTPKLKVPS
UniProt Q04656: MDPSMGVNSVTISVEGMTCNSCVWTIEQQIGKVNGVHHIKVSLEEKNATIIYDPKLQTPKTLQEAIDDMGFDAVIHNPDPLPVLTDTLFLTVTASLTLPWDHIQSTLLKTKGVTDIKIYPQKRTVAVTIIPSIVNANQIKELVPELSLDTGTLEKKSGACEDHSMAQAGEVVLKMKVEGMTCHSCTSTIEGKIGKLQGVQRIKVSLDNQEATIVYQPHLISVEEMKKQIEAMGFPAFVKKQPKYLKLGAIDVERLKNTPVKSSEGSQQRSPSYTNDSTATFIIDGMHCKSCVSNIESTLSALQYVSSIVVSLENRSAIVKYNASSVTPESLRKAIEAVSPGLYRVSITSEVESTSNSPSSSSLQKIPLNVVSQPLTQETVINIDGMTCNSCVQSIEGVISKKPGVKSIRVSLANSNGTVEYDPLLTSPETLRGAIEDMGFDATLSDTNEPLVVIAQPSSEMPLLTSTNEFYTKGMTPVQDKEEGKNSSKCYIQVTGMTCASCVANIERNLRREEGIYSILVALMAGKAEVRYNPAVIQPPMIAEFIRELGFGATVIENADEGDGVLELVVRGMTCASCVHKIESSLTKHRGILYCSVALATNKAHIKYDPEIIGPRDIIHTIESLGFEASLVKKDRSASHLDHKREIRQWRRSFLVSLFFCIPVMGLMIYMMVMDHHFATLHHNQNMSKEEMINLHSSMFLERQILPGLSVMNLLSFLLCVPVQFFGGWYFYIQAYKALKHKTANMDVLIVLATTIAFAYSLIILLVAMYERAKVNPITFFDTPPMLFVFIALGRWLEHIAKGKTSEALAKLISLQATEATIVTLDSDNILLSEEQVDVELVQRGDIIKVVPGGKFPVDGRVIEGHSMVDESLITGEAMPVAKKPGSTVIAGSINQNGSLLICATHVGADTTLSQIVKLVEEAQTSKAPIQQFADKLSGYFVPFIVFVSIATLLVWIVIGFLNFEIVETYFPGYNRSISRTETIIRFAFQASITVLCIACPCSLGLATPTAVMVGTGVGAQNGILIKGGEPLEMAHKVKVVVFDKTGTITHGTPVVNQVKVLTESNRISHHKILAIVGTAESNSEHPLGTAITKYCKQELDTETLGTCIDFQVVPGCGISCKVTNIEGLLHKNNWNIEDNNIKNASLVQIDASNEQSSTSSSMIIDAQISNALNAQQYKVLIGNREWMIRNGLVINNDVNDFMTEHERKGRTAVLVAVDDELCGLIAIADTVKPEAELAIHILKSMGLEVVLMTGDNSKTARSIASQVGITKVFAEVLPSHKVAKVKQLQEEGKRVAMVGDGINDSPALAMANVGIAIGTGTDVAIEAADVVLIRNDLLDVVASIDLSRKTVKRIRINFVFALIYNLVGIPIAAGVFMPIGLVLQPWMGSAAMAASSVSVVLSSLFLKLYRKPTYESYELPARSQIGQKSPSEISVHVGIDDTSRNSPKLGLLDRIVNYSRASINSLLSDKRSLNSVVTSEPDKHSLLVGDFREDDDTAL
UniProt Q9Y689: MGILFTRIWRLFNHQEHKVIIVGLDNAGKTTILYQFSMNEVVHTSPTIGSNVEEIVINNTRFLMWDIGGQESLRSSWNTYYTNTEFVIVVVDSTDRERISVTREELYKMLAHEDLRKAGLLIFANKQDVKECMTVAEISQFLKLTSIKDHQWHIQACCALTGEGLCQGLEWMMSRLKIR
UniProt P56134: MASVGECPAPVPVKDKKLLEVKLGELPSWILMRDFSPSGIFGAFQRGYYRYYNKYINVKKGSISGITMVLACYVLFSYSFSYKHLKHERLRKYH
UniProt P24539: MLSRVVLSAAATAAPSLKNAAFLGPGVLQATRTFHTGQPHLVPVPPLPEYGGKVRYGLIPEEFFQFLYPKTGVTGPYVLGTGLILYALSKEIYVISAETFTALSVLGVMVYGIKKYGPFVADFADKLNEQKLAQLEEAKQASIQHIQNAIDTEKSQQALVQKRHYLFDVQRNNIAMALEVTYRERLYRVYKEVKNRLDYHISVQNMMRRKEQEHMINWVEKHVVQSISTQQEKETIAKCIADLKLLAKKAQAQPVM
UniProt Q9Y294, whole entry, looked up: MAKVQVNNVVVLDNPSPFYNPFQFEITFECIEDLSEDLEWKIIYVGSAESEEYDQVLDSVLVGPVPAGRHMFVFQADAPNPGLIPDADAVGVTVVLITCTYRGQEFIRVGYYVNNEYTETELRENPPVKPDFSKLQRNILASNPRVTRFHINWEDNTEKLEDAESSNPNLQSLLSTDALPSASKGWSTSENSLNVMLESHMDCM
UniProt Q9H2C2: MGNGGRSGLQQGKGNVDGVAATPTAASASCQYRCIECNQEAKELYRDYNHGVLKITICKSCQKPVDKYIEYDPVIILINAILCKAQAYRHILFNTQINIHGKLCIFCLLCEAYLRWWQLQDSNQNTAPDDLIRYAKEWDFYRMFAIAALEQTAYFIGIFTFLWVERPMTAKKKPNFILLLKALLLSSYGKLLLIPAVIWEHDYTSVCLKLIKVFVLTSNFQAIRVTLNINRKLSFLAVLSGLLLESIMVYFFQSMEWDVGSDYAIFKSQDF
UniProt Q9NVP2, whole entry, looked up: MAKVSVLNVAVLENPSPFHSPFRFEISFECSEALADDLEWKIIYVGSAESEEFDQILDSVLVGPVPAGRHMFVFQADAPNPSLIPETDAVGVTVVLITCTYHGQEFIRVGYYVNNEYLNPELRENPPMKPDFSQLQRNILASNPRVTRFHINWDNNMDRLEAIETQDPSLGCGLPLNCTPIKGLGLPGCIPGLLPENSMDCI

Assays:
Assay in all cases: log2 fold change, soluble protein after heating vs DMSO (PISA); higher = thermal stabilisation; K562 cells, 10 uM, 30 min; active = over 0.2 and 3.5 SD of the protein, either way, in both replicates (recomputed)
[1] = compound: CS(=O)(=O)c1ccc(-c2cnc(N)c(C(=O)Nc3ccccc3)n2)cc1
Procedure, shortened: (§1)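 Soluble protein was quantified by TMTpro 16plex LC-MS/MS after channel sums were equalised. It was obtained as the supernatant after 21,000xg for 90 min from pooled aliquots of K562 cells (2×10^6 cells/mL, 10 μM compound, 30 min) heated for 3 min across 48°C-58°C and extracted in PBS with 0.5% NP-40 at 4°C. Thermal stability values are relative to control samples and come from duplicates. They are given as log2 fold changes.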

[2] = compound: C[C@@H](Oc1cc(-c2cnn(C3CCNCC3)c2)cnc1N)c1c(Cl)ccc(F)c1Cl [crizotinib]
Procedure, shortened: as §1

[3] = compound: C[C@@H]1COCCN1C2=NC(=NC(=C2)C3(CC3)S(=O)(=O)C)C4=C5C=CNC5=CC=C4
Procedure, shortened: as §1

[4] = compound: C[C@H](C1=CC=C(C=C1)C(=O)NC2=C3C=CNC3=NC=C2)N
Procedure, shortened: as §1

[5] = compound: C[C@H](Nc1ncnc2nc[nH]c12)c1cc2cccc(Cl)c2c(=O)n1-c1ccccc1 [duvelisib]
Procedure, shortened: as §1

[6] = compound: Cc1cc(Nc2cc(CN3CCOCC3)c3nc(C)c(Cc4ccc(Cl)cc4F)n3n2)n[nH]1 [gandotinib]
Procedure, shortened: as §1

[7] = compound: Cc1cc(Nc2cc(N3CCN(C)CC3)nc(Sc3ccc(NC(=O)C4CC4)cc3)n2)n[nH]1 [tozasertib]
Procedure, shortened: as §1

[8] = compound: Cc1cc(SCc2sc(-c3ccc(C(F)(F)F)cc3)nc2C)ccc1OCC(=O)O
Procedure, shortened: as §1

[9] = compound: Cc1ccc(-n2nc(C(C)(C)C)cc2NC(=O)Nc2ccc(OCCN3CCOCC3)c3ccccc23)cc1 [doramapimod]
Procedure, shortened: as §1

[10] = compound: Cc1ccc(C(=O)N(CCCN)[C@@H](c2nc3cc(Cl)ccc3c(=O)n2Cc2ccccc2)C(C)C)cc1 [ispinesib]
Procedure, shortened: as §1

[11] = compound: Cc1ccc(NC(=O)c2ccc(CN3CC[C@H](N(C)C)C3)c(C(F)(F)F)c2)cc1Nc1nccc(-c2cncnc2)n1 [bafetinib]
Procedure, shortened: as §1

[12] = compound: Cc1cccc(CC(=O)N2CCc3c2ccc(-c2cn(C)c4ncnc(N)c24)c3F)n1
Procedure, shortened: as §1

[13] = compound: Cc1cn(-c2cc(NC(=O)c3ccc(C)c(Nc4nccc(-c5cccnc5)n4)c3)cc(C(F)(F)F)c2)cn1 [nilotinib]
Procedure, shortened: as §1

[14] = compound: Cc1nc(Nc2n[nH]c3c2CN(C(=O)N[C@H](CN(C)C)c2ccccc2)C3(C)C)c2sccc2n1
Procedure, shortened: as §1

[15] = compound: Cc1nc(Nc2ncc(C(=O)Nc3c(C)cccc3Cl)s2)cc(N2CCN(CCO)CC2)n1 [dasatinib]
Procedure, shortened: as §1

[16] = compound: Cc1ncc(-c2ccnc(Nc3ccc(S(C)(=O)=O)cc3)n2)n1C(C)C
Procedure, shortened: as §1

[17] = compound: Cn1cc(-c2ccc3c(c2)CCN3C(=O)Cc2cccc(C(F)(F)F)c2)c2c(N)ncnc21
Procedure, shortened: as §1

[18] = compound: Cn1cc(-c2ccc3nnc(C(F)(F)c4ccc5ncccc5c4)n3n2)cn1
Procedure, shortened: as §1

[19] = compound: Cn1cncc1[C@@](N)(c1ccc(Cl)cc1)c1ccc2c(c1)c(-c1cccc(Cl)c1)cc(=O)n2C [tipifarnib]
Procedure, shortened: as §1

[20] = compound: FC(F)(F)c1ccc(/C=C/c2nc(COc3ccc(CCCCn4ccnn4)cc3)co2)cc1 [mubritinib]
Procedure, shortened: as §1

Measured: log2 fold change

ATG2B (UniProt Q96BY7)
inactive: [1] -0.001 | [2] -0.009 | [3] -0.008 | [4] -0.02 | [5] 0.102 | [6] -0.082 | [7] 0.006 | [8] -0.04 | [9] 0.028 | [10] -0.047 | [11] -0.087 | [12] 0 | [13] -0.012 | [14] -0.043 | [15] -0.002 | [16] 0.027 | [17] 0.005 | [18] 0.021 | [19] -0.062 | [20] 0.068

ATP2B1 isoform 1 (UniProt P20020)
inactive: [1] 0.04 | [2] 0.167 | [3] 0.025 | [4] -0.134 | [5] 0.054 | [6] -0.014 | [7] -0.046 | [8] -0.074 | [9] -0.017 | [10] 0.11 | [11] 0.034 | [12] -0.007 | [13] 0.04 | [14] -0.009 | [15] 0.02 | [16] 0.006 | [17] 0.048 | [18] 0.02 | [19] 0.05 | [20] 0.031

ARPC1A (UniProt Q92747)
inactive: [1] -0.002 | [2] 0.027 | [3] 0.037 | [4] -0.068 | [5] 0.029 | [6] 0.09 | [7] 0.01 | [8] -0.035 | [9] 0.031 | [10] 0.066 | [11] -0.043 | [12] 0 | [13] 0.18 | [14] 0.026 | [15] 0.105 | [16] 0.181 | [17] 0.023 | [18] 0.011 | [19] -0.079 | [20] 0.005

ARMT1 (UniProt Q9H993)
inactive: [1] 0.051 | [2] -0.562 | [3] 0.001 | [4] 0.186 | [5] -0.196 | [6] 0.193 | [7] 0.096 | [8] 0.225 | [9] 0.108 | [10] -0.443 | [11] -0.002 | [12] -0.045 | [13] -0.348 | [14] -0.061 | [15] -0.236 | [16] 0.026 | [17] 0.029 | [18] -0.006 | [19] -0.267 | [20] 0.191

ATP2C1 isoform 7 (UniProt P98194)
inactive: [1] -0.044 | [2] -0.04 | [3] 0.035 | [4] -0.001 | [5] 0.076 | [6] 0.027 | [7] -0.025 | [8] 0.005 | [9] -0.02 | [10] -0.195 | [11] -0.095 | [12] -0.087 | [13] -0.02 | [14] -0.018 | [15] 0.022 | [16] 0.013 | [17] -0.013 | [18] 0.021 | [19] 0.036 | [20] 0.035

ATP5MG (UniProt O75964)
inactive: [1] -0.004 | [2] 0.078 | [3] 0.09 | [4] 0.125 | [5] 0.066 | [6] 0.127 | [7] -0.017 | [8] -0.027 | [9] 0.029 | [10] -0.082 | [11] -0.065 | [12] -0.172 | [13] 0.005 | [14] 0.011 | [15] 0.053 | [16] -0.004 | [17] 0.213 | [18] 0.143 | [19] -0.04 | [20] 0.042

ATP13A1 (UniProt Q9HD20)
inactive: [1] 0.008 | [2] 0.095 | [3] 0.045 | [4] -0.072 | [5] 0.038 | [6] -0.037 | [7] 0.011 | [8] -0.013 | [9] -0.013 | [10] 0.032 | [11] -0.019 | [12] 0.029 | [13] 0.02 | [14] 0.014 | [15] 0 | [16] -0.004 | [17] 0.012 | [18] 0.001 | [19] -0.089 | [20] 0.027

ATP7A isoform 3 (UniProt Q04656)
inactive: [1] -0.012 | [2] 0.11 | [3] 0.003 | [4] -0.052 | [5] 0.021 | [6] 0.003 | [7] 0.013 | [8] -0.005 | [9] -0.005 | [10] 0.119 | [11] -0.01 | [12] -0.021 | [13] 0.006 | [14] -0.049 | [15] 0.023 | [16] 0.019 | [17] 0.033 | [18] -0.018 | [19] 0.007 | [20] -0.011

ARL5A (UniProt Q9Y689)
inactive: [1] 0.077 | [2] -0.029 | [3] 0.097 | [4] 0.009 | [5] 0.028 | [6] 0.159 | [7] 0.006 | [8] -0.003 | [9] 0.031 | [10] -0.064 | [11] 0.054 | [12] -0.067 | [13] 0 | [14] -0.001 | [15] 0.016 | [16] 0.026 | [17] -0.043 | [18] 0.099 | [19] 0.016 | [20] 0.022

ATP5MF (UniProt P56134)
inactive: [1] 0.01 | [2] 0.042 | [3] 0.023 | [4] -0.035 | [5] 0.048 | [6] 0.103 | [7] 0.002 | [8] -0.056 | [9] -0.037 | [10] 0.023 | [11] -0.077 | [12] -0.086 | [13] 0.007 | [14] 0.018 | [15] 0.04 | [16] 0.013 | [17] 0.011 | [18] -0.009 | [19] 0.021 | [20] 0.072

ATP5PB (UniProt P24539)
inactive: [1] 0.033 | [2] 0.084 | [3] 0.057 | [4] -0.03 | [5] -0.004 | [6] 0.004 | [7] 0.018 | [8] -0.006 | [9] -0.018 | [10] 0.026 | [11] 0.001 | [12] -0.027 | [13] -0.01 | [14] 0.031 | [15] 0.065 | [16] -0.007 | [17] 0.016 | [18] 0.017 | [19] 0.021 | [20] -0.007

ASF1A (UniProt Q9Y294)
inactive: [1] -0.077 | [2] -0.025 | [3] -0.096 | [4] -0.036 | [5] -0.029 | [6] -0.107 | [7] 0.01 | [8] 0.043 | [9] -0.011 | [10] 0.059 | [11] -0.083 | [12] 0.048 | [13] -0.004 | [14] -0.054 | [15] 0 | [16] -0.058 | [17] -0.013 | [18] -0.016 | [19] -0.02 | [20] 0.078

ARV1 (UniProt Q9H2C2)
inactive: [1] 0.006 | [2] 0.043 | [3] 0.01 | [4] -0.046 | [5] -0.028 | [6] -0.147 | [7] 0.032 | [8] 0.002 | [9] 0.037 | [10] -0.057 | [11] -0.128 | [12] 0.217 | [13] -0.058 | [14] 0.057 | [15] -0.053 | [16] 0.031 | [17] 0.03 | [18] -0.031 | [19] -0.031 | [20] 0.019

ASCC3 (UniProt Q8N3C0)
inactive: [1] 0.44 | [2] -0.046 | [3] -0.338 | [4] 0.389 | [5] -0.06 | [6] 0.193 | [7] 0.062 | [8] 0.017 | [9] 0.116 | [10] -0.296 | [11] 0.142 | [12] 0.004 | [13] -0.079 | [14] 0.02 | [15] 0.094 | [16] 0.055 | [17] -0.082 | [18] -0.08 | [19] -0.012 | [20] 0.161

ARPC1B (UniProt O15143)
inactive: [1] 0.035 | [2] -0.005 | [3] -0.1 | [4] -0.257 | [5] -0.013 | [6] 0.12 | [7] 0.086 | [8] 0.037 | [9] -0.007 | [10] 0.194 | [11] -0.028 | [12] 0.068 | [13] 0.141 | [14] -0.028 | [15] 0.014 | [16] 0.067 | [17] 0.029 | [18] -0.062 | [19] -0.079 | [20] -0.014

Retrieved one by one from the entries so far, 2 records:
ARPC1B (UniProt O15143)
inactive: [1] 0.035 | [2] -0.005 | [3] -0.1 | [4] -0.257 | [5] -0.013 | [6] 0.12 | [7] 0.086 | [8] 0.037 | [9] -0.007 | [10] 0.194 | [11] -0.028 | [12] 0.068 | [13] 0.141 | [14] -0.028 | [15] 0.014 | [16] 0.067 | [17] 0.029 | [18] -0.062 | [19] -0.079 | [20] -0.014

ASCC3 (UniProt Q8N3C0)
inactive: [1] 0.44 | [2] -0.046 | [3] -0.338 | [4] 0.389 | [5] -0.06 | [6] 0.193 | [7] 0.062 | [8] 0.017 | [9] 0.116 | [10] -0.296 | [11] 0.142 | [12] 0.004 | [13] -0.079 | [14] 0.02 | [15] 0.094 | [16] 0.055 | [17] -0.082 | [18] -0.08 | [19] -0.012 | [20] 0.161

Following part

ASF1B (UniProt Q9NVP2)
inactive: [1] -0.51 | [2] -0.148 | [3] -0.147 | [4] 0.128 | [5] 0.05 | [6] -0.058 | [7] -0.08 | [8] 0.028 | [9] 0.026 | [10] -0.227 | [11] -0.018 | [12] 0.004 | [13] -0.113 | [14] -0.184 | [15] 0.073 | [16] -0.062 | [17] -0.054 | [18] 0.099 | [19] 0.101 | [20] -0.294
